Library screening results

Data taken from ChEMBL document CHEMBL3988442, “University of Dundee, Small-Polar-MMV Screening Library” (2021).

Values are the deposited “Percent Effect”, in %. The record does not define 0% and 100%; most values in the screen are far below 50% and negative numbers occur (in some assays of this library far below -100). The compounds are a random part of those screened.

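Whole-cell assay for inhibitors of Mycobacterium tuberculosis growth, labelled Cornell in the record; the read-out is not stated. The concentration is filed as 10 mM, unlikely as a test dose, so the dose is not known. The record gives no direction; compounds strong in two other growth screens of this library score well above the rest, so higher reads as stronger inhibition. About 53,000 compounds were tested under these conditions; 1.7% (about 900) showed 50% or more at least once.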

SMILES,Percent Effect
CCN1CCN(C)C(=O)C12CCN(Cc1csc(C)n1)CC2.O=C(O)C(F)(F)F,10.76
CC1(C)CC1(C(=O)N1CC(c2cccnc2)C1)c1ccccc1F (centres unmarked),30.93
Nc1nccc(C2CCCN(CC3CC3)C2)n1 (centres unmarked),-12.31
Cc1cc(C)nc(N2CCOC(C)(C(=O)N(C)C)C2)n1 (centres unmarked),-2.226
Cc1ccnn1CCNC(=O)C1CCN(S(=O)(=O)c2ccc(F)cc2)C1 (centres unmarked),-14.85
CCOCCCNCc1cc(O)c2cc(C)ccc2n1,1.788
CN(C)C(=O)CNC(=O)c1ccc(Cl)cc1F,-12.99
CCCc1n[nH]cc1C(=O)N1CCCC(c2nccn2CC2CC2)C1 (centres unmarked),22.4
O=C1CCC(C(=O)NCCOc2ccccc2-c2ccccc2)CN1 (centres unmarked),-23.75
NCC1(c2cccc(C(F)(F)F)c2)CCOCC1,29.95
CCCN(CC(F)F)C(=O)CCc1c(C)nc2cc(O)nn2c1C,-19.07
COC(=O)c1ccc(F)c(S(=O)(=O)Nc2ccc(C(N)=O)cc2)c1,-17.29
COc1cccc(-c2cc(NCCN(C)C)nc3[nH]ccc23)n1,32.97
Cc1ncccc1C(=O)Nc1ccc2ccn(CCN(C)C)c2c1,12.12
Cc1cc(N2CCC(c3nccn3Cc3cscn3)CC2)ccn1,-11.35
Cc1cc(N(Cc2ccccc2F)C2CC2)n2nc(C(F)(F)F)nc2n1,19.06
CC(=O)N[C@@H]1CN(Cc2ccccc2-n2nc(C)cc2C)C[C@H]1C(C)C,33.72
CCn1cc(NC(=O)NC(CO)Cc2c[nH]c3ccccc23)cn1 (centres unmarked),-8.114
CN(Cc1nnc(-c2cccs2)o1)C(C(N)=O)c1cccc(F)c1 (centres unmarked),15.31
CN(C)C(=O)C1CN(Cc2ccsc2)Cc2ccnn2C1.O=C(O)C(F)(F)F (centres unmarked),2.31
O=C(O)C(F)(F)F.O=C(O)C(F)(F)F.c1cc(CN2CCCn3cnc(COCC4CC4)c3C2)ccn1,25.77
O=C(NC(c1ccc(Cl)cc1)C(F)(F)F)c1nc(=O)[nH][nH]1 (centres unmarked),-1.17
Cc1nc(C)n(CC2CCCN2c2ncnc3ccsc23)n1 (centres unmarked),-0.1127
Fc1ccccc1CN1CCC[C@@H](Cn2nnc(-c3cccs3)n2)C1,75.98
COCCCN(C)c1cc(C(F)(F)F)nc(-c2cccnc2)n1,7.149
[H][C@]12CN(CC3CC3)C(=O)[C@@]1([H])CN(S(C)(=O)=O)C2,-6.113
CN1CCNCC(Cc2cnc3ccccc3c2)C1 (centres unmarked),14.34
O=C(O)C(F)(F)F.O=C([C@H]1CCCO1)N1CCOC2(CCCN(c3ncccc3F)C2)C1 (some centres unmarked),6.553
COCCCNC(=O)NCc1cccn1Cc1ccccc1C,32.83
O=C(NCCCn1cccn1)C1COCC(=O)N1Cc1ccccc1 (centres unmarked),8.337
Cc1cc(C(F)(F)F)nc(CNc2nc(C)nc3c2cnn3C)n1,-15.75
Cc1ccoc1C(=O)NC1CCN(Cc2cccc3ccccc23)CC1,9.898
CCOC(=O)c1ccc(CNC(=O)c2ccc(Cl)cn2)o1,6.259
CCOc1nnc(CN(CC)CC(=O)NC(C)(C)C)s1,4.729
CC(NC(=O)NCCCc1n[nH]c(N)c1C#N)c1ccccc1 (centres unmarked),11.77
[H][C@@]12CCN(c3ccccn3)C[C@]1([H])[C@@H](CNC(=O)c1ccco1)OC2,21.83
CN1CCN(C2CCN(Cc3noc(C(C)(C)C)n3)CC2)C1=O,-18.69
COc1ccccc1C(C)N1CCN(S(C)(=O)=O)CC1 (centres unmarked),-28.48
CCOc1cccc(CSC(C)c2nc(C)no2)n1 (centres unmarked),12.72
CCCn1ncc(C(=O)N(C)Cc2cc(C3CC3)[nH]n2)c1C,-11.93
CNC(=O)CN1CCOCC2(CCCN(Cc3ccoc3)C2)C1 (centres unmarked),8.809
O=C(Nc1cnc2n1CCCC2)C1CCCN1C1CCNCC1 (centres unmarked),-17.35
Cc1nn(C)c(N2CCOCC2)c1CNCC1CCS(=O)(=O)C1 (centres unmarked),-0.8798
Cn1c2c(c(=O)n1C)CN(C(=O)c1cccc(F)c1)CCC2,-13.04
COC(=O)CCC(=O)NC(C)Cc1ccccc1Br (centres unmarked),11.5
CC(=O)Nc1nc(C)c(S(=O)(=O)NCCc2cccnc2)s1,-2.056
Cc1cc(C(=O)NCC2CCCO2)c(C)n1-c1cccnc1 (centres unmarked),-4.641
Cc1nc(C2CCN(C(=O)CO)CC2)cc(N2CCOCC2)n1,-5.316
O=C(N[C@@H]1CCNC[C@H]1O)c1ccc(-c2ccc(F)cc2)cc1,-14.97
CN(C)C(=O)C1CCC2(CCN(C(=O)Nc3ccc(F)cc3)CC2)O1 (centres unmarked),4.182
O=C(NC[C@H]1OC[C@@H](NC2CCC(F)(F)CC2)[C@@H]1O)c1cccs1,10.08
Cc1n[nH]c(C)c1CC(=O)N1CCC(O)(CN2CCOCC2)C1 (centres unmarked),0.03269
CCN(CC)C(=O)CSc1ncc[nH]1,15.92
CCn1ncc(C(=O)N2CCCN(CCCc3ccccc3)CC2)c1C,15.69
Cc1c(C2CC(=O)Nc3c2cnn3C(C)(C)C)cnn1C (centres unmarked),8.948
COc1cccc(OC2CN(C(=O)c3ccoc3C)C2)c1,-6.916
O=C(O)c1ccc(CN2CCCC(Cc3ccn[nH]3)C2)cc1 (centres unmarked),18.19
Cc1cc(-c2nn(C)c(Cl)c2CN2CCOCC(O)C2)no1 (centres unmarked),1.193
O=C(O)C(F)(F)F.O=C1COC2(CCN(Cc3ccoc3)CC2)CN1c1ccccc1,-16.64
COc1ccc(C(=O)N2CC(c3ccncc3)C2)c(OC)c1OC,26.4
Cc1cnc(N2CCC(c3ccncc3)CC2)nc1-c1ccnn1C,32.7
COCCOC1CCN(C(=O)NCc2cc(C)oc2C)CC1,24.35
CNCC(=O)N1CCC(c2ccnc(Nc3ccc(C)cn3)n2)C1.Cl (centres unmarked),-7.547